Reference: article PMC12892887
Results are given in words; binding and its absence hold for the method and conditions named. Binding seen in cells or lysates may run through a third protein. Here binding means that the protein was enriched with, or labelled near, the bait; the list need not be complete. For some of these results: Sequences can lack the tags named with a protein.

Chains of the proteins cited; added tags and fusions are not shown.
UniProt Q6PR54: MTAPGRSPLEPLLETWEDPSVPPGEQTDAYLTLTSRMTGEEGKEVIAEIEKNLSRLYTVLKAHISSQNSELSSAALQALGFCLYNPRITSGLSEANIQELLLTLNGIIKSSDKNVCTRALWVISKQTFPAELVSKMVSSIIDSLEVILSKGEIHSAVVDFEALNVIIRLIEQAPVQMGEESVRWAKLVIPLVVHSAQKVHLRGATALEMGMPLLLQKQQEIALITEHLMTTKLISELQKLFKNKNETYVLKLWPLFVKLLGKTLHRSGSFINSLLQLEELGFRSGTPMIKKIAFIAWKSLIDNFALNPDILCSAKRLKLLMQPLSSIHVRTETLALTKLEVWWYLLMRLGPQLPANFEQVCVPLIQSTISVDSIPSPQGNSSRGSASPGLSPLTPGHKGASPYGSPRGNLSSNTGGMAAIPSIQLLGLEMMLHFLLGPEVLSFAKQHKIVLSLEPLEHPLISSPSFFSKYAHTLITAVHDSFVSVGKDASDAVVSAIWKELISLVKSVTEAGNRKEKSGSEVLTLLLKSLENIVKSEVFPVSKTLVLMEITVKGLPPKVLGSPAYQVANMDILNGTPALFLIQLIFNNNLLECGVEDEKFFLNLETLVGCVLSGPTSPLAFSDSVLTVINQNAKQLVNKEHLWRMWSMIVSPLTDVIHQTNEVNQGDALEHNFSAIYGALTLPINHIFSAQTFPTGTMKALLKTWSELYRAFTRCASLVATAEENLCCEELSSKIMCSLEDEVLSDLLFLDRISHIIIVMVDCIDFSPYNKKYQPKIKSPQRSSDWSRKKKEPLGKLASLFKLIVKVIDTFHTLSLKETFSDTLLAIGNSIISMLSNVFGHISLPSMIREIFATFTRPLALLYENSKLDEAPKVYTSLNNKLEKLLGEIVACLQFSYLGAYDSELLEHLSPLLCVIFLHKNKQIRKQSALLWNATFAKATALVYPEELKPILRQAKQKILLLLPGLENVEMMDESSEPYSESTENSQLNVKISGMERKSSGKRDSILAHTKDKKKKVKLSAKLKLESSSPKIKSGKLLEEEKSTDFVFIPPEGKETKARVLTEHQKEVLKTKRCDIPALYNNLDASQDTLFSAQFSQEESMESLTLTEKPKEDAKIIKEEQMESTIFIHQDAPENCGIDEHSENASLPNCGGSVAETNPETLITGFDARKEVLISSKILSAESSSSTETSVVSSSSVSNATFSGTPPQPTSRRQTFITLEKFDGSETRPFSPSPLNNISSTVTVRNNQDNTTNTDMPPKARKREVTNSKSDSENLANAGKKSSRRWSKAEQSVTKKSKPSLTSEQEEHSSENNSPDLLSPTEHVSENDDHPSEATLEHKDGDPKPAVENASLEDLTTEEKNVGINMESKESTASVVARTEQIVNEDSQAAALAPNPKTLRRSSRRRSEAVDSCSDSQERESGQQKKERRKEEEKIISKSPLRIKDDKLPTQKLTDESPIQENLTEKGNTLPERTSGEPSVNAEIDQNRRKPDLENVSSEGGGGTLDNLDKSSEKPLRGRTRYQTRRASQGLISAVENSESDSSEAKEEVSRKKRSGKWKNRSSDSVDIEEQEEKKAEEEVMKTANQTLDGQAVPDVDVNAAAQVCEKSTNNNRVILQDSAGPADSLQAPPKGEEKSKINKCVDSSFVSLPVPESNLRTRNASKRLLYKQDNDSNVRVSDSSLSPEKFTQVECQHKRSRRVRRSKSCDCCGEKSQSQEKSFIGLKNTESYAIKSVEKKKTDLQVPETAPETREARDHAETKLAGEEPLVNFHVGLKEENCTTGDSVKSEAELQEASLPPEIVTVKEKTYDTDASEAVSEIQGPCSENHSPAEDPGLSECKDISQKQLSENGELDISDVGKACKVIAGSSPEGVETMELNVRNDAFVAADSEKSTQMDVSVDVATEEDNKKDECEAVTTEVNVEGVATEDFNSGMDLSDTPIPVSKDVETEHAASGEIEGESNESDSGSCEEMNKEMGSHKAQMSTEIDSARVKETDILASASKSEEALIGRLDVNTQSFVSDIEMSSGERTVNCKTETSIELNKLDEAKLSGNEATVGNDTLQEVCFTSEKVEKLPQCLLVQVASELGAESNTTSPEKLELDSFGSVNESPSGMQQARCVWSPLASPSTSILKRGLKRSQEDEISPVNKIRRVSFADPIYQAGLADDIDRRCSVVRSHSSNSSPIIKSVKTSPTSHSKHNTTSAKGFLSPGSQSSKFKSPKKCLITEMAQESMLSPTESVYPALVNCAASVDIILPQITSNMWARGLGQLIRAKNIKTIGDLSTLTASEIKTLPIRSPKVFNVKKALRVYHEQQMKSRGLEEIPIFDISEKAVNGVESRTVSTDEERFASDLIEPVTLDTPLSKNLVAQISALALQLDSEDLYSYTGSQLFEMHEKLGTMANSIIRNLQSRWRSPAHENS
UniProt Q9WV30: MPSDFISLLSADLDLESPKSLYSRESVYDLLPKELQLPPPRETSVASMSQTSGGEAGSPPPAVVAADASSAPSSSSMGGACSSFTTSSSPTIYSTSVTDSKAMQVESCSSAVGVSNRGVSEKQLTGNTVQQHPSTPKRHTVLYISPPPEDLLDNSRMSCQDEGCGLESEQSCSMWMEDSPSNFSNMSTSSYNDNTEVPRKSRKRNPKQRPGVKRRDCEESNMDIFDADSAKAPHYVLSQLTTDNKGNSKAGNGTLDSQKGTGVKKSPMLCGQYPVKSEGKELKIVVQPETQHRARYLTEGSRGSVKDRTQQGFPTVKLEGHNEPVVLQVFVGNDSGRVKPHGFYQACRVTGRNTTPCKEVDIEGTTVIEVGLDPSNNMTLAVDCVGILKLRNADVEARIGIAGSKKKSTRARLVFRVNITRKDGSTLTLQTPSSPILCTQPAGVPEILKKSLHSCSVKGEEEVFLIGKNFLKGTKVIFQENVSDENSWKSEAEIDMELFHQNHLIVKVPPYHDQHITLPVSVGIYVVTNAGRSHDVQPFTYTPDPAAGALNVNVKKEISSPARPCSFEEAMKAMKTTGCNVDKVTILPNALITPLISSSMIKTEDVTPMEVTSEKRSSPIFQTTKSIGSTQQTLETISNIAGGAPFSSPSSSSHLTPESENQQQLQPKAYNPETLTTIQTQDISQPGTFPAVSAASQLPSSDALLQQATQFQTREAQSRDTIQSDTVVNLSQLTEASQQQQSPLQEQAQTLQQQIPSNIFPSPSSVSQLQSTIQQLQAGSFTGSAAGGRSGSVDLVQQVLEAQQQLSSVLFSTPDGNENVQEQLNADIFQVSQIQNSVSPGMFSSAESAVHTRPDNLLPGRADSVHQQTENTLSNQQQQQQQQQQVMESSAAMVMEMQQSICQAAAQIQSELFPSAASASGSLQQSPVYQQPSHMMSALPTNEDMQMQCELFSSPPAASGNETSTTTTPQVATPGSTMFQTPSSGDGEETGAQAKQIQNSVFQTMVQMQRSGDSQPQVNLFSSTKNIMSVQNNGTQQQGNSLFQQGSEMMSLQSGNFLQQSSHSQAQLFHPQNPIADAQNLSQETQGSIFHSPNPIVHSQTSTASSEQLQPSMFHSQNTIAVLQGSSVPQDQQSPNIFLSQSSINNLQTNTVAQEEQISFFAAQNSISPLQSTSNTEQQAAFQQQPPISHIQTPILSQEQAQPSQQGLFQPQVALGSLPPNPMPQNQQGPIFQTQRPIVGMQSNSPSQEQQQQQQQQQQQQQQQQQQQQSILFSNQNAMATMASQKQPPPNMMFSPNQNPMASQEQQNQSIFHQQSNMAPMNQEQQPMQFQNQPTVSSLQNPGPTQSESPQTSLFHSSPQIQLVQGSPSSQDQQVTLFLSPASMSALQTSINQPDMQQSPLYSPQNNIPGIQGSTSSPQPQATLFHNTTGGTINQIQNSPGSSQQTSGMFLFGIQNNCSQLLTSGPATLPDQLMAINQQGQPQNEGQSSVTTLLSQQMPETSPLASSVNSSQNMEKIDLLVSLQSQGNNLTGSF
UniProt Q9WUK4: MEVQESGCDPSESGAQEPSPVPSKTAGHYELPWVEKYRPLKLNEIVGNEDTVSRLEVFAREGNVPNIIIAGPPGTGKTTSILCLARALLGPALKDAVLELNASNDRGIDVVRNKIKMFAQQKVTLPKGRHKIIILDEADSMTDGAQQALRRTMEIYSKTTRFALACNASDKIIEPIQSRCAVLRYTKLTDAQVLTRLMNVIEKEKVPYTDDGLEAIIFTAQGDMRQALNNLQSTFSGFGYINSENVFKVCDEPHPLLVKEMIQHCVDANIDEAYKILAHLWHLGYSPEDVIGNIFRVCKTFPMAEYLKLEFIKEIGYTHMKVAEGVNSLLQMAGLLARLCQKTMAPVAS
UniProt Q9QZR5: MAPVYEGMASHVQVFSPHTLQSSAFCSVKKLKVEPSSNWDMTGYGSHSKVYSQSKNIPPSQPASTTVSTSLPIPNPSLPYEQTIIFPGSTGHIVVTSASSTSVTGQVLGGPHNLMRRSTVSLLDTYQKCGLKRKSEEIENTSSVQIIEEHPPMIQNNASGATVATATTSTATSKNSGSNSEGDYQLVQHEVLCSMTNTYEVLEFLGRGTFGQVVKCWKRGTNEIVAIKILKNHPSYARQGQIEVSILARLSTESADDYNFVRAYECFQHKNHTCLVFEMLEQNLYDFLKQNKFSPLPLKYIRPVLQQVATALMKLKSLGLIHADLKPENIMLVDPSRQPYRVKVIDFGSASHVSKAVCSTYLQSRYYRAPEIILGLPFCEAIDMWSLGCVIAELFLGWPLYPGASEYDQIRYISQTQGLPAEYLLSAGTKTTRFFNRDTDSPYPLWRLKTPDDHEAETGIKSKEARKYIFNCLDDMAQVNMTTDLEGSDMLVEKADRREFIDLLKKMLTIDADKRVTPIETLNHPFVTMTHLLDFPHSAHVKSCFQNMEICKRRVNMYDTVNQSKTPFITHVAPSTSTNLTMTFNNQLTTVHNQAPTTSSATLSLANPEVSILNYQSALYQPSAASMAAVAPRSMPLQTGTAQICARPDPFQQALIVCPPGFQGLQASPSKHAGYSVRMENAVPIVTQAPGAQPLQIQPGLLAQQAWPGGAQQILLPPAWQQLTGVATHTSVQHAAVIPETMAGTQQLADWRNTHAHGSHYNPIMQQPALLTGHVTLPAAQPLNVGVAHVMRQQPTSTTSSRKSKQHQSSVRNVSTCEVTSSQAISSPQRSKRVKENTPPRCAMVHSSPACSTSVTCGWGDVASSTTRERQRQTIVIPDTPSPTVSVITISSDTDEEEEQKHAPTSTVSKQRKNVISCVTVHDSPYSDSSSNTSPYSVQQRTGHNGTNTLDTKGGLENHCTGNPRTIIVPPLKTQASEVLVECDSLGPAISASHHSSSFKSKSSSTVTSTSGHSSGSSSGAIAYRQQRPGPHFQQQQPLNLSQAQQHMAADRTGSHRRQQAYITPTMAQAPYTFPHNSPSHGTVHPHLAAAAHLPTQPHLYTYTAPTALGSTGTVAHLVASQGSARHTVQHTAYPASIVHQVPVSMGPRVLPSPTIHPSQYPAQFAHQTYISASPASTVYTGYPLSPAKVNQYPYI
UniProt P70268: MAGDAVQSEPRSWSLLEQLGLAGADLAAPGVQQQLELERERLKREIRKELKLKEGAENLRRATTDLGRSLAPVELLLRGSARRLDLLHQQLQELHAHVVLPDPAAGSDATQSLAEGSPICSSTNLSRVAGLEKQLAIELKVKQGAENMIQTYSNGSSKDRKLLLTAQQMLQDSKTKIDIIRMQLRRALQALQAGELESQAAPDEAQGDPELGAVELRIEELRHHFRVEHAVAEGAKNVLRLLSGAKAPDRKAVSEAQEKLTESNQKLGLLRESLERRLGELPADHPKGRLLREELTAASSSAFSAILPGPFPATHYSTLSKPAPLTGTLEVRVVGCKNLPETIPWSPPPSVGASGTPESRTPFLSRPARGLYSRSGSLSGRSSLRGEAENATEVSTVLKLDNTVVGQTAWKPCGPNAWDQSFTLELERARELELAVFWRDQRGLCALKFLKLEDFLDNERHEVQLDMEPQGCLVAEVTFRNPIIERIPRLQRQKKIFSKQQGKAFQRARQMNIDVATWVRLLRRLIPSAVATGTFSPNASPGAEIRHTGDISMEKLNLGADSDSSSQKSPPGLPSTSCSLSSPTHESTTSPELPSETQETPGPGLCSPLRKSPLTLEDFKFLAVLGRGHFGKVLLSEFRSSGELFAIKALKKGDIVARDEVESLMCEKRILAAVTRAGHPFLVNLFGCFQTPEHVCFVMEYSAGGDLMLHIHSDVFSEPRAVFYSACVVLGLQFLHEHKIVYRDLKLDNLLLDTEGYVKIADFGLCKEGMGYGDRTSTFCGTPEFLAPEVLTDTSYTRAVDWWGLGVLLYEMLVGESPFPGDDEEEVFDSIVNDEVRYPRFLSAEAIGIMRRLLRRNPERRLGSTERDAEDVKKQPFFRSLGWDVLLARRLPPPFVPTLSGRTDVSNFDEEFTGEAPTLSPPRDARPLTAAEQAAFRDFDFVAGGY

T1: HDAC8 (mouse (endogenous in Teffs and Tregs)) (UniProt Q8VH37)
T1 sequence: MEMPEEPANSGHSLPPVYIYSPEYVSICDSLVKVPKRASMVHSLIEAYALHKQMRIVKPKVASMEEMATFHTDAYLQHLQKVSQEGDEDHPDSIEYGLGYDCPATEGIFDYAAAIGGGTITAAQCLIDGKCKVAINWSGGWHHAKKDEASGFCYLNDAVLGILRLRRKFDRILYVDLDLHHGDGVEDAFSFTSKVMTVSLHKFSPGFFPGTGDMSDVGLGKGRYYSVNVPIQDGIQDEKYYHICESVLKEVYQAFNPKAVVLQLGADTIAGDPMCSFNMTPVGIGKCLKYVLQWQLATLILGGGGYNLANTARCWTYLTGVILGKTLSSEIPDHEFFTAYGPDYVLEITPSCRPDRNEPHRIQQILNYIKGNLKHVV


Tests used:
[1] = molecular target: T1, HDAC8 (mouse (endogenous in Teffs and Tregs)); assay: affinity purification with mass spectrometry; Treg lysate (IP lysis buffer, 200 ug) incubated overnight at 4°C with HDAC8 antibody on protein A/G magnetic beads; IgG control; on-bead digestion, data-independent acquisition
[2] = molecular target: T1, HDAC8 (mouse (endogenous in Teffs and Tregs)); assay: affinity purification with mass spectrometry; Teff lysate (IP lysis buffer, 200 ug) incubated overnight at 4°C with HDAC8 antibody on protein A/G magnetic beads; IgG control; on-bead digestion, data-independent acquisition

Molecule	binding [1]	binding [2]
Fastkd3 (mouse (endogenous in Tregs))	binds	
Rif1 (from UniProt Q6PR54 1-2419)	binds	
Nfat5 (from UniProt Q9WV30 1-1534)	binds	binds
Rfc2 (from UniProt Q9WUK4 1-349)	binds	
Hipk2 (from UniProt Q9QZR5 1-1196)	binds	binds
Pkn1 (from UniProt P70268 1-946)	binds	
Gstt3 (protein, UniProt Q99L20 1-241) MGLELYLDLMSQPCRAVYIFAKKNGIPFQLRTIELLKGQQYTDSFAQVNPLRKVPALKDGDFVLAESVAILLYLSRKYKAPDHWYPQDLQTRARVDEYLAWQHTALRSCCTRAMWQKMMFPVFLGQPVPPEMLASTLAELDGCLQVLEDKFLRNQAFLTGSHISVADLVAITELMHPVSAGCKIFESRPKLAAWRQRVEAEVGESLFQEAHEVVLKAKDMPPLMDPALKEKLKLSVQCLLH	binds	
Znf639 (protein, UniProt Q99KZ6 1-485) MNEYPKKRKRKTLHPSRYSDSSGISRIADGVSGIFSDHCYSVCSMRQPDLKYFDNKDDDSDPETANDLPKFADGTKARNRNQSYLVPSPVLRILDHTVFSTEKSTEVEICDEECASPESVHQHTQEESPIEVHTSEDVPIAVEVHAISEDYDIEAENNSSESLQDQADEEPPAKLCKILDKGQALNVTAQQKWPLLRANSSGLYKCELCEFNSKYFSDLKQHVILKHKRTDSNVCRVCKESFSTNMLLIEHAKLHEEDPYICKYCDYKTVIFENLSQHIADTHFSDHLYWCEQCDVQFSSSSELYLHFQEHSRDEQYLCQFCEHETGDPEDLHSHVVNEHARRLIELSDKCGSGGHGQCSLLSKITFDKCKNFFVCQVCGFRSRLHTNVNRHVAIEHTKIFPHVCDDCGKGFSSMLEYCKHLNSHLSEGIYLCQYCEYSTGQIDDLKIHLDFKHSADLPHKCSECLMRFGNERDLLGHLQVHETT	binds	binds
Lkzf5 (protein, UniProt Q8BU00 1-419) MGEKKPEPLDFVKDFQEYLTQQTHHVNMISGSVSGDKEAETLQGAGTDGDQNGLDHPSVEVSLDENSGMLVDGFERTFDGKLKCRYCNYASKGTARLIEHIRIHTGEKPHRCHLCPFASAYERHLEAHMRSHTGEKPYKCELCSFRCSDRSNLSHHRRRKHKMVPIKGTRSSLSSKKMWGVLQKKTSNLGYSRRALINLSPPSMVVQKPDYLNDFTHEIPNIQTDSYEAMAKTTPTGGLPRDPQELMVDNPLNQLSTLAGQLSSLPPENQNPASPDVDACPDEKPFMIQQPSAQAVVSAVSASIPQSSSPTSPEPRPSHSQRNYSPVAGPSSEPSAHTSTPSIGNSQPSTPAPTLPVQDPQLLHHCQHCDVYFADNVLYTVHMGCHGYDSPFQCNVCGCKCKDKYDFACHFARGQHNQH		binds
Crtc3 (protein, UniProt Q91X84 1-619) MAASPGSGSANPRKFSEKIALHTQRQAEETRAFEQLMTDLTLSRVQFQKLQQLRLTQYHGGSLPNVSQLRNSAPEFQPSLHQADNVRGTRHHGLVERPARNRFHPLHRRSGDKPGRQFDGNAFAASYSSQHLDESWPRQQPPWKEEKHPGFRLTSALNRTNSDSALHTSALSTKPQDPYGGGGQSAWPAPYMGFCDGENDGHAEVAAFPGPLKEENLLNVPKPLPKHLWESKEIQSLSGRPRSCDVGGGNAFPHNGQNTGLSPFLGTLNTGGSLPDLTNLHYSAPLPASLDTSDHLFGSMSVGNSVGNLPAAMTHLGIRTSSGLQSSRSNPSIQATLSKMALSSSLKCHPQPSVANASALHPSLRLFSLSNPSLSTTNLSGPSRRRQPPVSPLTLSPGPEAHQGFSRQLSATSPLNPYPASQMVTSEQSPLSFLPTDAQAQVSPPPPYPTPQELPQPLLQQPHAQEPPTQQPQAAPSLPQSDFQLLTAQGSALTSFFPDVRFDQQPMRPSPAFPQQVPLVQQSHREPQDSFHLRPNPYSSCGSFPGTILTEDTNSNLFKGLSGGLSGMPEVSLDMDTPFPLEEELQIEPLSLDGLNMLSDSSMGLLDPSVEETFRADRL		binds
